# Assay results: PMC7819943, “Rice protein-binding microarrays: a tool to detect cis-acting elements near promoter regions in rice”
# The chains behind the UniProt entries cited, without tags or fusion partners.
# UniProt Q0JBA9, entry or part of it: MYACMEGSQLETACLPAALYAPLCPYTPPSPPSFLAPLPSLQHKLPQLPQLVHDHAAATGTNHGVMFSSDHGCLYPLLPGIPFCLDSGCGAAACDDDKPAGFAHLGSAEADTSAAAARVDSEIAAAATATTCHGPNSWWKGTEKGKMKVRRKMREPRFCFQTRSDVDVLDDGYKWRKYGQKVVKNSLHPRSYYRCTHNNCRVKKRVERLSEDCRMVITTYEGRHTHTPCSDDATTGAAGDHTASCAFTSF
# The other results are listed elsewhere or left out.
# Molecular target: OsWRKY34 (Oryza sativa, UniProt Q0JBA9 1-250)
# Assay: protein-binding microarray (RPBM); PBS, 2% BSA, 51.3 ng/ul salmon testes DNA, 50 uM zinc acetate, 200 nM TF, 25 C, 1 h; high values mean tight binding
# Conditions: protein: recombinant; tags: N-terminal polyhistidine and DsRed monomer fusion (pET32a); label: CyDye5-dUTP incorporated in the synthesized complementary strand; 3' TTTTT single-stranded linker to array surface; dsDNA, one strand shown
# Method in brief: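 In PBS with 2% BSA, salmon testes DNA and 50 µM zinc acetate, 200 nM protein was incubated on a custom Agilent array at 25 °C for 1 h and then washed off. The array had been made double-stranded by primer extension with Cy5-dUTP and blocked with 2% BSA. The proteins were transcription factors fused N-terminally to polyhistidine and DsRed, expressed in E. coli BL21-CodonPlus and purified on Ni–NTA. The binding signal is per-feature fluorescence intensity (arbitrary units) from an Axon 4000B scanner.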
row,Sequence,binding signal
1,AGTCTTTGGGAGCTAGTGTTGAGTTGTACATTTGGGGATACGGAGTCACCTAGTGCAG,10900 fluorescence intensity (a.u.)
2,GATACGATGACAGACACGCCGCTGGCCGCTTGACCTCGCCCGGAGTCACCTAGTGCAG,8520 fluorescence intensity (a.u.)
3,CGATTGACCCCTTTACCACATTACACTGTTCTGTACAGTTCGGAGTCACCTAGTGCAG,10800 fluorescence intensity (a.u.)
4,AAGCTTTCTCAACCGTTTATATCCCGAGTTTTGTTCGCTCCGGAGTCACCTAGTGCAG,9610 fluorescence intensity (a.u.)
5,TCCGCGCCGTCACCTCACCTCCCGTCGTCGTCTCCTATTCCGGAGTCACCTAGTGCAG,12800 fluorescence intensity (a.u.)
6,AAATGGGGTGAGATGAATGGATGGCTAAAATTGAAACTTACGGAGTCACCTAGTGCAG,8060 fluorescence intensity (a.u.)
7,GTCCGCTCGCGCCAGCTCATGCATGTTCTCTCTCTTTAGCCGGAGTCACCTAGTGCAG,13100 fluorescence intensity (a.u.)
8,CCTGCCTGCCTAAGCATTGTCATAAGTGCTTCGACTCTTTCGGAGTCACCTAGTGCAG,9710 fluorescence intensity (a.u.)
9,CAACCTACCGGTTCGTGATGGCGGGGCGGCTGGCTGACAACGGAGTCACCTAGTGCAG,8610 fluorescence intensity (a.u.)
10,TGCGCTCGTGAGGTGAATGCCCATACATTTGTTAGATTTTCGGAGTCACCTAGTGCAG,9830 fluorescence intensity (a.u.)
11,ACGAGACGACCTGACCTTTCTCTTCTCCATCTCCACCCCGCGGAGTCACCTAGTGCAG,8670 fluorescence intensity (a.u.)
12,TGTATCATTTTTTTTCACTCCACAGGTTATTGATTCATTACGGAGTCACCTAGTGCAG,9510 fluorescence intensity (a.u.)
13,GATTCAATCTTCGTTTAACTGTCACCAATAATGACCGACCCGGAGTCACCTAGTGCAG,9300 fluorescence intensity (a.u.)
14,CTCTTTTTTTTTCACCATGTTTGCAAGATACCAAATTTGTCGGAGTCACCTAGTGCAG,9310 fluorescence intensity (a.u.)
15,TCTTCTTCTTCCGTCGCTAATTAGATCGTCACTACCTCTTCGGAGTCACCTAGTGCAG,11500 fluorescence intensity (a.u.)
16,GTACCTGCTCTTAGACGGTTGACCTTTTTCTTGTTTGGGACGGAGTCACCTAGTGCAG,8640 fluorescence intensity (a.u.)
17,TTTACTCCCTTAATCTCGTTGCAAAATTCAAGCAGCTGTCCGGAGTCACCTAGTGCAG,8230 fluorescence intensity (a.u.)
18,TATGTCGCCGCCCTACGTCAGCGAAGAGTGGGGTGGGTCCCGGAGTCACCTAGTGCAG,9150 fluorescence intensity (a.u.)
19,CACACACTTTCTACTCTCTCTCTCTCTCACTTCCTCTCATCGGAGTCACCTAGTGCAG,8300 fluorescence intensity (a.u.)
20,ACCGCGCACGCAACCGACTCAGCTCCTATATTTTGTATACCGGAGTCACCTAGTGCAG,11400 fluorescence intensity (a.u.)
21,TCAAACGGCCATTCCTGTGTTTTTCCTGCATTTTACAATCCGGAGTCACCTAGTGCAG,8750 fluorescence intensity (a.u.)
22,CGTCCGACGCGGAGTCTTGTGGGCTTTCTGGGTTAGGGACCGGAGTCACCTAGTGCAG,10500 fluorescence intensity (a.u.)
23,GACGCTTCCGTGGCCATCAGCTTGTACCTGTTTCCTTCATCGGAGTCACCTAGTGCAG,14100 fluorescence intensity (a.u.)
24,ATCCCTTTCTCTGCAACCGCACATCCTGTCTGCTTGCTTGCGGAGTCACCTAGTGCAG,10600 fluorescence intensity (a.u.)
25,GACACGGTCGCTTGCCGTGATCGCCATCCCTTGTCTACACCGGAGTCACCTAGTGCAG,8610 fluorescence intensity (a.u.)
26,TTTCCAATCAGCATTGTCGTTTTTCTATTAACATCAGTATCGGAGTCACCTAGTGCAG,8110 fluorescence intensity (a.u.)
27,GTTTTGGAGCAGAAGCCCGTTTTCTCCGCCATCTTGCCATCGGAGTCACCTAGTGCAG,8400 fluorescence intensity (a.u.)

# Reformatted as tab-separated lines: entries from further up.
row	Sequence	binding signal
8	CCTGCCTGCCTAAGCATTGTCATAAGTGCTTCGACTCTTTCGGAGTCACCTAGTGCAG	9710 fluorescence intensity (a.u.)
9	CAACCTACCGGTTCGTGATGGCGGGGCGGCTGGCTGACAACGGAGTCACCTAGTGCAG	8610 fluorescence intensity (a.u.)
10	TGCGCTCGTGAGGTGAATGCCCATACATTTGTTAGATTTTCGGAGTCACCTAGTGCAG	9830 fluorescence intensity (a.u.)
11	ACGAGACGACCTGACCTTTCTCTTCTCCATCTCCACCCCGCGGAGTCACCTAGTGCAG	8670 fluorescence intensity (a.u.)
12	TGTATCATTTTTTTTCACTCCACAGGTTATTGATTCATTACGGAGTCACCTAGTGCAG	9510 fluorescence intensity (a.u.)

# Following part:

row,Sequence,binding signal
1,ACAACGCCGCCGCCTCATCCGCTCTGCTTCTGCTCGCATGCGGAGTCACCTAGTGCAG,8410 fluorescence intensity (a.u.)
2,CTATTTTTAGTTGTGCTTTGCACTAGATTCATTCCCGTCTCGGAGTCACCTAGTGCAG,8500 fluorescence intensity (a.u.)
3,ATTCCTATCCGTCTCCGTTGACAGTCACCCCAATCATCACCGGAGTCACCTAGTGCAG,8310 fluorescence intensity (a.u.)
4,AGTTAGCATTGTGATGTGGCACATCTAATCTCATCTCTCTCGGAGTCACCTAGTGCAG,8360 fluorescence intensity (a.u.)
5,GCCCTCGCCTCGCCTCGCCTCGCCGAAACCCTAACCCTAGCGGAGTCACCTAGTGCAG,8240 fluorescence intensity (a.u.)
6,ACCGACCCTTCCGACCGGTTCTTCCGGTGCCACGCACTCACGGAGTCACCTAGTGCAG,8500 fluorescence intensity (a.u.)
7,ACACACAAACTTTCAACTTTTCTGTCACATCGTTCTAATTCGGAGTCACCTAGTGCAG,11100 fluorescence intensity (a.u.)
8,AACTCGAGGACTTTCCATGGCACCGCGGTCTCCATCGTCTCGGAGTCACCTAGTGCAG,10800 fluorescence intensity (a.u.)
9,TTTCGTGTCCAACTTTGACTGTCCGTCTTATATAAATTTTCGGAGTCACCTAGTGCAG,11500 fluorescence intensity (a.u.)
10,GTTCTTGTCAGTTACTCCACTATCTTGCAATTAAGTTGCACGGAGTCACCTAGTGCAG,8180 fluorescence intensity (a.u.)
11,GGGTGGGGCCAGTGAGTCAGTGGGCGGGGCACAATGGGACCGGAGTCACCTAGTGCAG,11900 fluorescence intensity (a.u.)
12,TATGCTCAATTTGGCCGTTACTGAGGGGCCTTTCTACAAACGGAGTCACCTAGTGCAG,8650 fluorescence intensity (a.u.)
13,TCCATATTGGTCATCGTCAGCCGCTCAGGGTCTTCTTCCTCGGAGTCACCTAGTGCAG,9320 fluorescence intensity (a.u.)
14,CCACACAACGTTGACTGGGTCATTACATCCTTTTCCGTAGCGGAGTCACCTAGTGCAG,8650 fluorescence intensity (a.u.)
15,GCCTCTACGTGGCAGGCTTGCAGTAGGCCATTTACCGTCCCGGAGTCACCTAGTGCAG,8230 fluorescence intensity (a.u.)
16,CTATCCTCGTCCACCTTTCAGCCCGGCCCATTTATATCCACGGAGTCACCTAGTGCAG,9510 fluorescence intensity (a.u.)
17,CTCTTGGCATTTACCCACCAGACGATCACATCACCCGCTCCGGAGTCACCTAGTGCAG,9020 fluorescence intensity (a.u.)
18,CCAGTCAACCCAAGCACCCAGCCGTCTCGCCTCCTATTCTCGGAGTCACCTAGTGCAG,10800 fluorescence intensity (a.u.)
19,CTAGGTACTAGTTAGCATGTATTGACTCCCGCTGATTTTTCGGAGTCACCTAGTGCAG,10200 fluorescence intensity (a.u.)
20,GGTTGTATCATTTGTTTCTTCTATATGCTCAACAGCTCAACGGAGTCACCTAGTGCAG,8360 fluorescence intensity (a.u.)
21,ACATTTGACCGTTCGTCTTATTTGAAAAACAATTATGATTCGGAGTCACCTAGTGCAG,8890 fluorescence intensity (a.u.)
22,TTAGCCGTCGTAATAGTCATTTTCTTTTTCTTGGTTTTTTCGGAGTCACCTAGTGCAG,12400 fluorescence intensity (a.u.)
23,AACAGACTTGGTAATTTTGCCCCATATTTCGCATACAATACGGAGTCACCTAGTGCAG,8390 fluorescence intensity (a.u.)
24,TTGTATTCGGGTCGTCAACGTTTCTCTCAAATCATAGTTACGGAGTCACCTAGTGCAG,14800 fluorescence intensity (a.u.)
25,CCAATGCCAATACCAATATGCTTCTAGAACCTGTACAGCTCGGAGTCACCTAGTGCAG,8870 fluorescence intensity (a.u.)
26,CTTTGCGCGTCACCTCGCCTCCACGACCCTCGAGACAAAACGGAGTCACCTAGTGCAG,9380 fluorescence intensity (a.u.)
27,CTACTATTTCTTCATGTTACATAATTCTCCTTGTTTAAGTCGGAGTCACCTAGTGCAG,9260 fluorescence intensity (a.u.)
